Data published in article PMC3660569.
No constants are given. Whether binding was seen depends on the method and setting. Binding seen in cells or lysates may run through a third protein. Some entries that bind do so weakly or less than the wild type. Where a sequence is shown, tags or fusion partners need not be part of it.

Sequences of proteins named here, by UniProt entry; tags and fusion partners are left off.
UniProt P0C0U1: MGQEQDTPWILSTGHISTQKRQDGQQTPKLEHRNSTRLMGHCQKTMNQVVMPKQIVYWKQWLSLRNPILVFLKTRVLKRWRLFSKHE

Target: PB1-F2 from A/Puerto Rico/8/34(H1N1), myc-tagged (influenza A virus A/Puerto Rico/8/34(H1N1)) (UniProt P0C0U1)
Assay: co-IP

B1: Flag tagged IKKβ (enzyme, UniProt O14920 1-756)
chain: MSWSPSLTTQTCGAWEMKERLGTGGFGNVIRWHNQETGEQIAIKQCRQELSPRNRERWCLEIQIMRRLTHPNVVAARDVPEGMQNLAPNDLPLLAMEYCQGGDLRKYLNQFENCCGLREGAILTLLSDIASALRYLHENRIIHRDLKPENIVLQQGEQRLIHKIIDLGYAKELDQGSLCTSFVGTLQYLAPELLEQQKYTVTVDYWSFGTLAFECITGFRPFLPNWQPVQWHSKVRQKSEVDIVVSEDLNGTVKFSSSLPYPNNLNSVLAERLEKWLQLMLMWHPRQRGTDPTYGPNGCFKALDDILNLKLVHILNMVTGTIHTYPVTEDESLQSLKARIQQDTGIPEEDQELLQEAGLALIPDKPATQCISDGKLNEGHTLDMDLVFLFDNSKITYETQISPRPQPESVSCILQEPKRNLAFFQLRKVWGQVWHSIQTLKEDCNRLQQGQRAAMMNLLRNNSCLSKMKNSMASMSQQLKAKLDFFKTSIQIDLEKYSEQTEFGITSDKLLLAWREMEQAVELCGRENEVKLLVERMMALQTDIVDLQRSPMGRKQGGTLDDLEEQARELYRRLREKPRDQRTEGDSQEMVRLLLQAIQSFEKKVRVIYTQLSKTVVCKQKALELLPKVEEVVSLMNEDEKTVVRLQEKRQKELWNLLKIACSKVRGPVSGSPDSMNASRLSQPGQLMSQPSTASNSLPEPAKKSEELVAEAHNLCTLLENAIQDTVREQDQSFTALDWSWLQTEEEEHSCLEQAS
binding: binds
